Measured values as given in the supplement of paper PMC12067093, “Discovery and optimisation of a covalent ligand for TRIM25 and its application to targeted protein ubiquitination” (Chemical Science, 2025).
This is one part of the list.

The chains behind the UniProt entries cited, without tags or fusion partners. Where a name states a change or a piece, a line headed by the entry shows the natural chain unless it says otherwise.
UniProt Q15269: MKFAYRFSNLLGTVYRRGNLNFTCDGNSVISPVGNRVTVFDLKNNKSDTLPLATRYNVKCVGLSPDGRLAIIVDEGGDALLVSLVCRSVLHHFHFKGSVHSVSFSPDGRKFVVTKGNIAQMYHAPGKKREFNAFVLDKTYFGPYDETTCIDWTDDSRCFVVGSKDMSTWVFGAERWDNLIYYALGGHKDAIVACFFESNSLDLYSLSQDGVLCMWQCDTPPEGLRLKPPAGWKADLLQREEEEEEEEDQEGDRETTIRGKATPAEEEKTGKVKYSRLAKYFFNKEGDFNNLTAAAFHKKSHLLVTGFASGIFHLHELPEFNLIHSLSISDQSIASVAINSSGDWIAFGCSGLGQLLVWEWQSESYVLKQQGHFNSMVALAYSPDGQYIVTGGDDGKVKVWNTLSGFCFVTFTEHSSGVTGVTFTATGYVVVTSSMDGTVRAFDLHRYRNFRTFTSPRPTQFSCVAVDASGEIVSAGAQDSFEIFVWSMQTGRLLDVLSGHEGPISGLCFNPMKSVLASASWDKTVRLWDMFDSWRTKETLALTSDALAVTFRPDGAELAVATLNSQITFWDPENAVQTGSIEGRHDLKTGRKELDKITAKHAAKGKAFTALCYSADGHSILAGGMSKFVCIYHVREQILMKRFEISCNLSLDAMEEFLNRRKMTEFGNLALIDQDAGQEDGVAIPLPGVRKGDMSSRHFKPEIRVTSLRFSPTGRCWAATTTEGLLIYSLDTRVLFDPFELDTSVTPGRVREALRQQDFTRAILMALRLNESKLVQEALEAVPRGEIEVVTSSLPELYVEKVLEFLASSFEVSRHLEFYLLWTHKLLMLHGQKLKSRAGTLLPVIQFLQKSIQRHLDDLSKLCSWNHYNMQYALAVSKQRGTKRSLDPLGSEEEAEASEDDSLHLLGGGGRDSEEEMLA
UniProt Q9NP72: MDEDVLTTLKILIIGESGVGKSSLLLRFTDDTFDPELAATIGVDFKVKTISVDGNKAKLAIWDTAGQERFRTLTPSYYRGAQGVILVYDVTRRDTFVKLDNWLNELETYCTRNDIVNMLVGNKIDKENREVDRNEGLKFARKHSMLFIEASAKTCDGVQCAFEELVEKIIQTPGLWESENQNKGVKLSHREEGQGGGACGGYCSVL
UniProt Q92696: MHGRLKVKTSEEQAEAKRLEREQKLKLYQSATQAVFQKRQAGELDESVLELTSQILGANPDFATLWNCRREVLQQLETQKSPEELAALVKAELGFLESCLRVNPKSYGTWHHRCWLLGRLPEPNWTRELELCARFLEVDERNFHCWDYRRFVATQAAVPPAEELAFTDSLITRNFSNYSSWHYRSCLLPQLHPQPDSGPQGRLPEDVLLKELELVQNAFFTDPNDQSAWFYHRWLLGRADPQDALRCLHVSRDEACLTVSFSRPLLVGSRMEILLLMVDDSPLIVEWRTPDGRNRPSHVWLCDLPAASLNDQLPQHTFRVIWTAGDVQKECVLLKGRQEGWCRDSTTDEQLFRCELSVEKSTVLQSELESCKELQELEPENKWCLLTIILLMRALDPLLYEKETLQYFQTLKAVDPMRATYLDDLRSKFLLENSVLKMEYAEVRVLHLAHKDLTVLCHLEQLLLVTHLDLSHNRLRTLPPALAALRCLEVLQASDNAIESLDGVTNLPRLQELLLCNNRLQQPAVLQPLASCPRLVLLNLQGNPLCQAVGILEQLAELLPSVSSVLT
UniProt Q9Y3P9: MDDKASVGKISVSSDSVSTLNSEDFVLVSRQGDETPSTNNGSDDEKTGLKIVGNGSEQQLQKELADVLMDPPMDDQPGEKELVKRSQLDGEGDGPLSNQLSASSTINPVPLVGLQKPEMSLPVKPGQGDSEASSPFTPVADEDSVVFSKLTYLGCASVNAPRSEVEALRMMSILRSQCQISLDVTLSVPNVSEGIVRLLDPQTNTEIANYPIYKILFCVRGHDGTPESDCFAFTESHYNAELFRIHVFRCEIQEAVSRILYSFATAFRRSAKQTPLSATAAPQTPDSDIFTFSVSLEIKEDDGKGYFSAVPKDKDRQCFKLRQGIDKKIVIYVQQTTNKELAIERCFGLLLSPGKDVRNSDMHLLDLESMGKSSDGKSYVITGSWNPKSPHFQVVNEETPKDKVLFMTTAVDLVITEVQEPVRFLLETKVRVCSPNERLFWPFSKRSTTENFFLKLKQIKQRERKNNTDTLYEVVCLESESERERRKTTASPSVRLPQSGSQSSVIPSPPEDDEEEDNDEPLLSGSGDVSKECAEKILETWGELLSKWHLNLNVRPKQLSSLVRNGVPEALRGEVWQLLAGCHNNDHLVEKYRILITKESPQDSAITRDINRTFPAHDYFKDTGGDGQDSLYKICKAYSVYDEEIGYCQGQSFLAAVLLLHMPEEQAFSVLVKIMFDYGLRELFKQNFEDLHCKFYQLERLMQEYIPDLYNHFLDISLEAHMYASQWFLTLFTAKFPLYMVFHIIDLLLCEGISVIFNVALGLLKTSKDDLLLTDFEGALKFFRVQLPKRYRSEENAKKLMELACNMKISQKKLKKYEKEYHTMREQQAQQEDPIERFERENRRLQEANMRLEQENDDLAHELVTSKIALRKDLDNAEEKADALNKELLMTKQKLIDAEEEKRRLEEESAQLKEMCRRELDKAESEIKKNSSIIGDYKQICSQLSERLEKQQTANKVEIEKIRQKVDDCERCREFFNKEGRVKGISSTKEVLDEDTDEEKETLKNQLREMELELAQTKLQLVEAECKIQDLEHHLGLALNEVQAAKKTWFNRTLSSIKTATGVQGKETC
UniProt Q9H2M9: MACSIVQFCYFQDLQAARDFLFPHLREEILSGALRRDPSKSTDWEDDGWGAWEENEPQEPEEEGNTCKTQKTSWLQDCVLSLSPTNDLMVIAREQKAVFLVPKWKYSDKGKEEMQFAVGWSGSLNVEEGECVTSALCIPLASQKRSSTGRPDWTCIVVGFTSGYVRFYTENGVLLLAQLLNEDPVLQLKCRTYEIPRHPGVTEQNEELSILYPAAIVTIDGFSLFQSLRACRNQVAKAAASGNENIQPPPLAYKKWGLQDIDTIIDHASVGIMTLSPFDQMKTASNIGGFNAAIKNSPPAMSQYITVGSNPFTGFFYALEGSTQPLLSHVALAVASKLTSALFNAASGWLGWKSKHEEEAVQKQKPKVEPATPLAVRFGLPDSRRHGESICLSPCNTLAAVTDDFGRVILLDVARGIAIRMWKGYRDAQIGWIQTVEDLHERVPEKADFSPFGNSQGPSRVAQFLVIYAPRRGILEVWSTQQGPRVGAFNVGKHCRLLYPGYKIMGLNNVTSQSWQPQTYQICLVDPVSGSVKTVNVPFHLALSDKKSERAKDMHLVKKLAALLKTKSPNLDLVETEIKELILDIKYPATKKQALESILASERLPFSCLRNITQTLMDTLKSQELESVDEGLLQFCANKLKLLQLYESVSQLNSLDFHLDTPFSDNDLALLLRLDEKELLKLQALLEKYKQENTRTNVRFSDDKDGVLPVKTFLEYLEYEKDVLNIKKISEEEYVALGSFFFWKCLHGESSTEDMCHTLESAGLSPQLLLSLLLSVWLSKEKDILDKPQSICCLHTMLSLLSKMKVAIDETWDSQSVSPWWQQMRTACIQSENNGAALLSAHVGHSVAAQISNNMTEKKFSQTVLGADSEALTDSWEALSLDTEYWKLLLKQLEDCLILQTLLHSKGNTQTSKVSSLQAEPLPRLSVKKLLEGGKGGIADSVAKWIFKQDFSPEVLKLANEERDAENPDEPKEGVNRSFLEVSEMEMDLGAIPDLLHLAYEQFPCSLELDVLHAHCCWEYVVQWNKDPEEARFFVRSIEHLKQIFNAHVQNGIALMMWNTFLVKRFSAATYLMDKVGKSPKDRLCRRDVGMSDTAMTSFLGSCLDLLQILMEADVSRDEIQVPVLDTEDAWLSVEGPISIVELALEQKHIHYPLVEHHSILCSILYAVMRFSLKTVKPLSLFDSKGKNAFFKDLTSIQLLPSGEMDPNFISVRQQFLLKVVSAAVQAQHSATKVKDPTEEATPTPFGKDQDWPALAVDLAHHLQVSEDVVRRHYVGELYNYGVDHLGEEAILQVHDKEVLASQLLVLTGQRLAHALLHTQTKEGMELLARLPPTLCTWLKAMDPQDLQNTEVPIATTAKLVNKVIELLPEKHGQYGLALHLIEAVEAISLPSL
UniProt Q96PU8: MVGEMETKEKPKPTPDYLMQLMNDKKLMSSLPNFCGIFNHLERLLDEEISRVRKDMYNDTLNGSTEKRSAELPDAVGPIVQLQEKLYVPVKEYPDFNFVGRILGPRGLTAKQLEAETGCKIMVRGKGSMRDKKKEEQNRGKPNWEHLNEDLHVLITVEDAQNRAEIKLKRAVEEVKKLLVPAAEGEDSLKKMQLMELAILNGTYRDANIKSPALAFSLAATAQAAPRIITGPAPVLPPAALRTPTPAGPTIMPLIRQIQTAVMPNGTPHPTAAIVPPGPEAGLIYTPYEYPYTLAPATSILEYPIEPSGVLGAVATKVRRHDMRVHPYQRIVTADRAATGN
UniProt Q6WKZ4: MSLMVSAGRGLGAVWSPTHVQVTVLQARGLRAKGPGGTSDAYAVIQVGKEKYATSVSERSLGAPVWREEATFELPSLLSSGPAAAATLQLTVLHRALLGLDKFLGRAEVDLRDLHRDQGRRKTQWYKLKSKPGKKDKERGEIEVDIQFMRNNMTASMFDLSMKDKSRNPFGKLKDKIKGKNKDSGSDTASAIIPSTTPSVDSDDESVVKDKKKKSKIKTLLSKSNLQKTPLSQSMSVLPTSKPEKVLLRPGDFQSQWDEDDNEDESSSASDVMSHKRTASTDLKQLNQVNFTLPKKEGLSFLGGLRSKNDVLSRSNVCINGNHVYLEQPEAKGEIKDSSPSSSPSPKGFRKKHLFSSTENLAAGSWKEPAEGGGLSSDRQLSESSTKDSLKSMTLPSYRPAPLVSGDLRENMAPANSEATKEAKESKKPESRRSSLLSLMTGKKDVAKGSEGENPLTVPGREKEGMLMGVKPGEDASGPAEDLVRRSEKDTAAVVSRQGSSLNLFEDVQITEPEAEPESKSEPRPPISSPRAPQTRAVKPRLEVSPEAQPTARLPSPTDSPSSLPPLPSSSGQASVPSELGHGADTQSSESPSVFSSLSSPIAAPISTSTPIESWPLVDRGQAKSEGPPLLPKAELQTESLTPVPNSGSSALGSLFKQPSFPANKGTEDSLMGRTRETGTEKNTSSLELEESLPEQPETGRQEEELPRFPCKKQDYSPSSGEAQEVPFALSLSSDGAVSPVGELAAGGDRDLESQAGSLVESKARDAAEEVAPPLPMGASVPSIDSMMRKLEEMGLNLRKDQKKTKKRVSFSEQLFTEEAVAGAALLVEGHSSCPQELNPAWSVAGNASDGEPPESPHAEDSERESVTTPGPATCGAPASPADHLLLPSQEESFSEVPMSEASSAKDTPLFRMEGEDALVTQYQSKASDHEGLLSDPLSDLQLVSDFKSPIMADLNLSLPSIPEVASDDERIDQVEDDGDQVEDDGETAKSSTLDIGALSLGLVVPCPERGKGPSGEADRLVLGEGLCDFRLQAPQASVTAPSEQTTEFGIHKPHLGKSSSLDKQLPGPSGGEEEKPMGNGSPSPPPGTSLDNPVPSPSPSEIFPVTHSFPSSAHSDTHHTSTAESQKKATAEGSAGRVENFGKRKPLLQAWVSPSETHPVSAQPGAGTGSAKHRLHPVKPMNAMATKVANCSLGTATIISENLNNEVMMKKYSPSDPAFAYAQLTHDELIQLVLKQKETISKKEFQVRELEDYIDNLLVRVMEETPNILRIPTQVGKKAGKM
UniProt Q9BXF6: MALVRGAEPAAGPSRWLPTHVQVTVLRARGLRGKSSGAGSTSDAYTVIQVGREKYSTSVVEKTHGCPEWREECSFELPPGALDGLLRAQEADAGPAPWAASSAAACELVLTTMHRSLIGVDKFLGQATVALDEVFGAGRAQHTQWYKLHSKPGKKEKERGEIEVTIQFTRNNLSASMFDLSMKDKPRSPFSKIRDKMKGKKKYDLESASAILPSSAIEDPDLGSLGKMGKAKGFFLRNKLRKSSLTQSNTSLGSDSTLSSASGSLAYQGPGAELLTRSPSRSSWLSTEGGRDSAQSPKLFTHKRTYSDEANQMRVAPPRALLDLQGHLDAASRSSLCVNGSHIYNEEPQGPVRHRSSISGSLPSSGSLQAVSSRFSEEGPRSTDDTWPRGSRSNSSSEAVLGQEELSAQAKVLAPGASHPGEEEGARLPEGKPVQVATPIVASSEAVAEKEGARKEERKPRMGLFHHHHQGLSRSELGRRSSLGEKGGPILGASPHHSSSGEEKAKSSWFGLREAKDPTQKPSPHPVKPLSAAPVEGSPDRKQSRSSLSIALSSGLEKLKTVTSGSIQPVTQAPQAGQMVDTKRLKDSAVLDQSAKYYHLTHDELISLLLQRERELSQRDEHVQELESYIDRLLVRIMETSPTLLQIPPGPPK

Compound: CC1Cc2ccccc2N1C(=O)C1CCCN(C1)C(=O)CCl (mixture of isomers) [TRIM25 ligand 11 (diastereomer mixture)]
Assay: probe-labelled cysteine peptide fold change vs DMSO (competition) (log2 fold change); higher = less target engagement (more negative = stronger competition)
Conditions: THP-1, incubation time: 4 h
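Further: competitive chemoproteomic profiling in live THP-1 cells with an iodoacetamide desthiobiotin (IA-DTB) probe, comparing probe-labelled peptide intensities in compound-treated cells against DMSO-treated controls.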

Row | Target | probe-labelled cysteine peptide fold change (10 µM) | probe-labelled cysteine peptide fold change (50 µM)
1 | RACK1_P63244_207_TNHIGHTGYLNTVTVSPDGSLCASGGK (UniProt P63244) | -0.002 | -0.0287
2 | RAD51B_O15315_32_HQILTCQDFLCLSPLELMK (UniProt O15315) | -0.0981 | -0.12
3 | RACGAP1_Q9H0H5_93_AEADCEK (UniProt Q9H0H5) | 0.0788 | 0.135
4 | RACK1_P63244_240+249_HLYTLDGGDIINALCFSPNRYWLCAATGPSIK (UniProt P63244) | -0.547 | -0.346
5 | PWP2_Q15269_863_LCSWNHYNMQYALAVSK (UniProt Q15269) | 0.0991 | 0.0966
6 | RAB18_Q9NP72_160_TCDGVQCAFEELVEK (UniProt Q9NP72) | 0.0849 | 0.0421
7 | RABGGTA_Q92696_132_ELELCAR (UniProt Q92696) | 0.147 | 0.122
8 | RABGGTA_Q92696_457_DLTVLCHLEQLLLVTHLDLSHNR (UniProt Q92696) | 0.188 | 0.151
9 | RABGAP1_Q9Y3P9_941_QICSQLSER (UniProt Q9Y3P9) | 0.0108 | -0.0997
10 | RAB3GAP2_Q9H2M9_391_HGESICLSPCNTLAAVTDDFGR (UniProt Q9H2M9) | -0.212 | -0.23
11 | QTRT2_Q9H974_324_KIETTGCNQEITSFEINLK (UniProt Q9H974) | -0.19 | -0.251
12 | PWP2_Q15269_630_FVCIYHVR (UniProt Q15269) | 0.216 | 0.371
13 | QKI_Q96PU8_119_QLEAETGCK (UniProt Q96PU8) | -0.0587 | 0.00781
14 | RAD54B_Q9Y620_320_CGAILADEMGLGK (UniProt Q9Y620) | 0.0288 | 0.149
15 | RAB3GAP2_Q9H2M9_395_HGESICLSPCNTLAAVTDDFGR (UniProt Q9H2M9) | 0.106 | -0.00717
16 | RAB11FIP1_Q6WKZ4_1028_LVLGEGLCDFR (UniProt Q6WKZ4) | -0.216 | -0.316
17 | RACK1_P63244_249_HLYTLDGGDIINALCFSPNRYWLCAATGPSIK (UniProt P63244) | -0.43 | -0.454
18 | QSOX2_Q6ZRP7_131_NQAVCHDYDIHFYPTFR (UniProt Q6ZRP7) | -0.0912 | -0.028
19 | QARS_P47897_111_ECGVGVIVTPEQIEEAVEAAINR (UniProt P47897) | 0.235 | -0.211
20 | RAB11FIP5_Q9BXF6_337_SSLCVNGSHIYNEEPQGPVR (UniProt Q9BXF6) | -0.00352 | -0.406
21 | RABGAP1_Q9Y3P9_969_QKVDDCER (UniProt Q9Y3P9) | -0.0183 | 0.0662
22 | QKI_Q96PU8_35_LMSSLPNFCGIFNHLER (UniProt Q96PU8) | -0.055 | 0.0375
23 | RAB3D_O95716_137_CDLEDERVVPAEDGR (UniProt O95716) | 0.251 | 0.0747
24 | QSOX1_O00391_165_LIDALESHHDTWPPACPPLEPAKLEEIDGFFAR (UniProt O00391) | 0.157 | -0.0652
